These results are taken from PMC8740220.

By UniProt entry, the sequences of proteins in these tests, tags left out.
UniProt P35222: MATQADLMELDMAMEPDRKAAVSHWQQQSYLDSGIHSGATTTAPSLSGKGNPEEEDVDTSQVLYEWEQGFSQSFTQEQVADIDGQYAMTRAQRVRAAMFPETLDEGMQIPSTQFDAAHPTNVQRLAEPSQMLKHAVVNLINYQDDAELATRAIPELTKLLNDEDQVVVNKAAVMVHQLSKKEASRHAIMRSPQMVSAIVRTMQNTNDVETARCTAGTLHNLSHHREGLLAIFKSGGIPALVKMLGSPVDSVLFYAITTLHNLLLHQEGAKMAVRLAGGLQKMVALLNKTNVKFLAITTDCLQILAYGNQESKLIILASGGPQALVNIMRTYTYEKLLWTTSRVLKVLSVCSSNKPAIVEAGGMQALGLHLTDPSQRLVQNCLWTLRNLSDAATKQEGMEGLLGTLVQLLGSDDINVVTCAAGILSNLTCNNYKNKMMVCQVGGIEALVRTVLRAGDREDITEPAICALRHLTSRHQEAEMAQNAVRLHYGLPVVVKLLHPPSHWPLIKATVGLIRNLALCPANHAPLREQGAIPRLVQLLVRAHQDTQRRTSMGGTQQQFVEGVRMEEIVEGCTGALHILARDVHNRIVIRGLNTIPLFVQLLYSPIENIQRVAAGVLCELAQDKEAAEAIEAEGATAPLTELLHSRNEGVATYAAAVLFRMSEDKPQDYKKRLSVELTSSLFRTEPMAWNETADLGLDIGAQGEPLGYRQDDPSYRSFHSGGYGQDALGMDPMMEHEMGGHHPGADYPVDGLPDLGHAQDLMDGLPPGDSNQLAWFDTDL

Test [1] has as its target T1, HA-NRIP2 (UniProt Q9BQI9).
T1 sequence: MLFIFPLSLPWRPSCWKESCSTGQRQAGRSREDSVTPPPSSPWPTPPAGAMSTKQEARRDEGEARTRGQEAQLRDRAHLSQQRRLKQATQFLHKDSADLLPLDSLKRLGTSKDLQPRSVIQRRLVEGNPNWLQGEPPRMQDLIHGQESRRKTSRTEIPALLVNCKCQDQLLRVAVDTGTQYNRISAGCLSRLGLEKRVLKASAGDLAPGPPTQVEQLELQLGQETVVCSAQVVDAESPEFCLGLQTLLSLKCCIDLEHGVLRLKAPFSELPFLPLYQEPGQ
The test can be described thus: co-IP; podocytes co-transfected with Myc-β-catenin (full length or deletion mutants) and HA-NRIP2, lysed after 24 h; IP with HA beads, immunoblot with anti-Myc and anti-HA. In general terms: A western blot detects proteins with antibodies after separation by electrophoresis.

Test [2] has as its target β-catenin (endogenous) (human (endogenous in the human podocyte cell line)) (UniProt P35222). The test can be described thus: co-IP; whole-cell extracts of cultured human podocytes; β-catenin antibody overnight at 4°C, protein A/G magnetic beads, washes with cold PBS; immunoblot for NRIP2; cells transfected with NRIP2 siRNA as negative control.

No constants are given. Whether binding was seen depends on the method and setting. Binding seen in cells or lysates may run through a third protein. Some entries that bind do so weakly or less than the wild type. For some assays here: Tags and fused reporters may be left off the sequences shown.

Turning to “Myc-tagged β-catenin full length (from UniProt P35222 1-781)”, in test [1], the binding entry is “binds”.

B1: Nuclear receptor interacting protein 2 (endogenous) (protein, UniProt Q9BQI9 1-281)
chain: MLFIFPLSLPWRPSCWKESCSTGQRQAGRSREDSVTPPPSSPWPTPPAGAMSTKQEARRDEGEARTRGQEAQLRDRAHLSQQRRLKQATQFLHKDSADLLPLDSLKRLGTSKDLQPRSVIQRRLVEGNPNWLQGEPPRMQDLIHGQESRRKTSRTEIPALLVNCKCQDQLLRVAVDTGTQYNRISAGCLSRLGLEKRVLKASAGDLAPGPPTQVEQLELQLGQETVVCSAQVVDAESPEFCLGLQTLLSLKCCIDLEHGVLRLKAPFSELPFLPLYQEPGQ
With B1, the binding result in test [2] is “binds”.
